Results: PubChem BioAssay AID1487 (National Center for Advancing Translational Sciences (NCATS), 2009)
Some of the results follow. These are further read-outs of the screen, such as a control signal, another cell line or another target. No call is given for them. Most of these compounds were active or inconclusive in the main read-out, so they are no random draw. Potencies come from curve fits of mixed quality, noted in brackets.

Experiment: qHTS Assay for Modulators of Lamin A Splicing
Settings: HeLa LMNA splicing GFP/RFP minigene ratio, 48 h
Outline: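 S3 HeLa stable clones carrying a lamin A-EGFP splicing minigene plus DsRed2 were seeded at 600 cells/well in Opti-MEM with 2% FBS, pin-dosed and incubated 48 h at 37°C. Acumen cytometry (488 nm) gave the GFP/RFP total-intensity ratio.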

[1] = measured here: RFP viability control channel
[2] = measured here: GFP splicing reporter channel

| Compound | AC50 [1] | AC50 [2] |
| --- | --- | --- |
| Cc1ccc(NC(=O)CSCc2nc3c(nnn3Cc3ccc(F)cc3)c(=O)[nH]2)c(C)c1 | 8.91 µM [falling, partial curve, poor fit] | – |
| Cc1ccc(C)n1-c1ccc(NC(=O)c2ccccc2)cc1 | 5.01 µM [falling, partial curve, poor fit] | – |
| Cc1oncc1C(=O)NC1CCCCC1 | 0.00447 µM [rising, full curve, poor fit] | 0.0562 µM [rising, partial curve, poor fit] |
| Cc1nc(-c2ccc(C)c(N3CCN(C(=O)Nc4ccc(Br)cc4)CC3)c2)no1 | – | 35.5 µM [falling, partial curve] |
| CCn1cc(S(=O)(=O)c2cccc(C)c2)c(=O)c2cc(F)c(N3CCCCC3C)cc21 (stereo not given) | 0.0355 µM [falling, full curve, poor fit] | 0.0282 µM [falling, full curve, poor fit] |
| O=C(NCc1ccc2c(c1)OCO2)c1cc(S(=O)(=O)N2CCCCC2)ccc1F | 14.1 µM [rising, single point] | – |
| COc1ccc(OCc2nn3c(Cn4cnc5ccccc54)nnc3s2)cc1 | 15.8 µM [rising, partial curve] | 12.6 µM [rising, single point] |
| COc1cccc(CN(Cc2ccco2)C(c2ccc(F)cc2)c2nnnn2C(C)(C)C)c1 (stereo not given) | 11.2 µM [rising, partial curve] | – |
| COc1c([N+](=O)[O-])c(=O)n(-c2ccccc2)c2ccccc12 | 17.8 µM [rising, single point] | 14.1 µM [rising, single point] |
| COc1ccc(N(CC(=O)NCc2ccc(C)cc2)S(=O)(=O)c2ccccc2[N+](=O)[O-])c(OC)c1 | 22.4 µM [falling, single point] | 35.5 µM [falling, single point] |
| Cc1cc2ncn(C(=O)N3CCCCCC3)c2cc1C | 7.94 µM [rising, partial curve, poor fit] | – |
| CCn1c(SCC(=O)NCCOC)nc2sc3c(c2c1=O)CCCC3 | – | 31.6 µM [rising, single point] |
| O=C(c1ccco1)N(CCC(c1ccccc1)c1ccco1)Cc1ccco1 (stereo not given) | 35.5 µM [falling, partial curve, poor fit] | – |
| O=C(Nc1sc2c(c1C(=O)O)CCC2)c1ccccc1 | 11.2 µM [rising, single point] | – |
| NC(N)=NCc1cccc(I)c1 | – | 0.00447 µM [falling, partial curve, poor fit] |

2 entries from above, reformatted.
Compound	AC50 [1]	AC50 [2]
Cc1cc2ncn(C(=O)N3CCCCCC3)c2cc1C	7.94 µM [rising, partial curve, poor fit]	–
CCn1c(SCC(=O)NCCOC)nc2sc3c(c2c1=O)CCCC3	–	31.6 µM [rising, single point]
